Consider one substance from paper PMC10269783.

Amino acid sequences for entries named in this document (tags omitted). A change or cut given only in a name is not applied to a line headed by its entry.
UniProt Q8I5N7: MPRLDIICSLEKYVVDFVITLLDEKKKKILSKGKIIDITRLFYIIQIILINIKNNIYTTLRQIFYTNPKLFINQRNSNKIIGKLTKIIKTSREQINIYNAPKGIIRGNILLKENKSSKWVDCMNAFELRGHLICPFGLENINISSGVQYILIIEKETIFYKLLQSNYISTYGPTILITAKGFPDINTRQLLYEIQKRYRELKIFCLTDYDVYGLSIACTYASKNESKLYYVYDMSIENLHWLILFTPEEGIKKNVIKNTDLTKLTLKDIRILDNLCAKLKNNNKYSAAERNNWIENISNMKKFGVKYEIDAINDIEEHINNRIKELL
UniProt Q8ID53: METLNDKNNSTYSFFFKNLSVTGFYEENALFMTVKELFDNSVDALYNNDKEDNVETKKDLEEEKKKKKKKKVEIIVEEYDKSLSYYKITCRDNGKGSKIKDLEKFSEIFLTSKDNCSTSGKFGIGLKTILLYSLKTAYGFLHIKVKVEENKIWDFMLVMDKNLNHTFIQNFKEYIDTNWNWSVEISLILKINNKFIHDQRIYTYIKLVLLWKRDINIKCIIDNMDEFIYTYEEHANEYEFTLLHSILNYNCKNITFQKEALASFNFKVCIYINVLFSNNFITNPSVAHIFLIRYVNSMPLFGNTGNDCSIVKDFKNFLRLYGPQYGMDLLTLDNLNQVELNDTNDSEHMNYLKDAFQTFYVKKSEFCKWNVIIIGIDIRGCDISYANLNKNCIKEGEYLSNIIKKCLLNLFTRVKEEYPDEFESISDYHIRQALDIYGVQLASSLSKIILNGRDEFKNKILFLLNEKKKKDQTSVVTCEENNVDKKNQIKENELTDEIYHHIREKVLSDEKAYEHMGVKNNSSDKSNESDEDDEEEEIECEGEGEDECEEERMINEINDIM

No constants are given. Whether binding was seen depends on the method and setting. Binding seen in cells or lysates may run through a third protein. Binding calls can cover weak binding; strength is not graded here.

The test concerns the target Plasmodium falciparum Spo11 (Plasmodium falciparum (endogenous in 3D7 parasites)) (UniProt Q8I5N7). As to the kind of experiment: co-IP; Pierce cross-link IP kit; anti-PfSpo11 antibody cross-linked (DSS) to protein A/G Plus agarose; lysate of synchronized late schizont stage parasites in IP lysis buffer (0.025 M Tris, 0.15 M NaCl, 0.001 M EDTA, 1% NP-40, 5% glycerol, pH 7.4), overnight; pellet probed with PfTopoVIB antibody; IgG as control.

Take “Plasmodium falciparum topoisomerase VIB (from UniProt Q8ID53)”: the binding entry is reported as “binds”.
